The supplement of paper PMC12889115
The other results are listed elsewhere or left out. These are raw signals, not scaled to a control.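 In the initial screen, polymyxin B was used at a concentration that permeabilizes Salmonella's outer membrane but not its inner membrane. Maximum growth was set by DMSO wells with or without polymyxin B. Since plates varied, data were ranked per plate, and compounds giving the lowest OD600 advanced as hits.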

Test system: Salmonella enterica serovar Typhimurium SL1344
Assay: bacterial growth OD600 after 18 h with compound and polymyxin B; higher = more bacterial growth (less inhibition)
Settings: 50 µM, Mueller-Hinton broth

O=C(CCC(=O)N1CCOc2ccc(CN3CCN(c4ncccn4)CC3)cc2C1)c1ccccc1
bacterial growth OD600 (polymyxin B 0.75 µg/mL): 0.859

CCn1ncc(CN2CCC(N3CCC(C(=O)NCc4cccnc4)CC3)CC2)c1C
bacterial growth OD600 (polymyxin B 1 µg/mL): 0.746

CCOC(=O)C1(CC2CC2)CCN(Cc2ccccc2C(F)(F)F)CC1
bacterial growth OD600 (polymyxin B 1 µg/mL): 0.859

Cc1ccc(CNC(C)c2cnc(N(C)C3CCCCC3)nc2C)o1 (stereo not given)
bacterial growth OD600 (polymyxin B 0.75 µg/mL): 0.556

COC(=O)C1CCCCN1C(=O)c1c(OC)cc(=O)n2c1CCN(Cc1cccc(F)c1)CC2 (stereo not given)
bacterial growth OD600 (polymyxin B 0.75 µg/mL): 0.823

COc1ccc(OC2CCN(Cc3nc(-c4ccc(Cl)cc4)oc3C)CC2)cc1
bacterial growth OD600 (polymyxin B 0.75 µg/mL): 0.126

CSc1ccc(CN2CCC(Oc3ccccc3C(=O)N3CCCC3)CC2)cc1
bacterial growth OD600 (polymyxin B 1 µg/mL): 1.09

CCN(CC1CCCN(CCc2cccc(F)c2)C1)C(=O)c1cscn1 (stereo not given)
bacterial growth OD600 (polymyxin B 1 µg/mL): 1.12

CCc1cc(CNC(=O)c2ccc(OC3CCN(C(=O)C4CC4)CC3)cc2)on1
bacterial growth OD600 (polymyxin B 1 µg/mL): 1.07

O=C(CCc1cccc(Cl)c1)NC1CCCN(Cc2ccccc2F)C1 (stereo not given)
bacterial growth OD600 (polymyxin B 1 µg/mL): 0.72

CCCCNC(=O)c1cn(C(C)C)cc(C(=O)N2CCN(C3CCCC3)CC2)c1=O
bacterial growth OD600 (polymyxin B 0.75 µg/mL): 1.03

Cc1cc(C(=O)N2CCCC(Nc3ccc(F)cc3)C2)n(C)n1 (stereo not given)
bacterial growth OD600 (polymyxin B 1 µg/mL): 0.811

COc1ccc(OCc2cc(C(=O)N(C)CC3CCCCO3)n[nH]2)c(Cl)c1 (stereo not given)
bacterial growth OD600 (polymyxin B 1 µg/mL): 0.898

CN(CC1CCCO1)c1ccc(C(=O)N2CCC(CCn3cccn3)CC2)cn1 (stereo not given)
bacterial growth OD600 (polymyxin B 1 µg/mL): 0.99

C[C@@H]1CN(C2(C(=O)NCCc3cnccn3)Cc3ccccc3C2)C[C@H](C)O1
bacterial growth OD600 (polymyxin B 1 µg/mL): 1.15

O=C1CCCN1CC(=O)N1CCCC(CCc2cccc(F)c2)C1 (stereo not given)
bacterial growth OD600 (polymyxin B 0.75 µg/mL): 0.786

Cc1cccc(CNC(=O)c2cc(Cn3c(C)nc4ccccc43)on2)n1
bacterial growth OD600 (polymyxin B 1 µg/mL): 1.13

O=C1CCC(CCC(=O)N2CCCC(OCc3ccccc3)C2)(Cc2ccccc2)N1 (stereo not given)
bacterial growth OD600 (polymyxin B 0.75 µg/mL): 0.861

CC(C)N1CCN(CC2(O)CCCN(CC3CCCCC3)C2=O)CC1 (stereo not given)
bacterial growth OD600 (polymyxin B 1 µg/mL): 0.916

O=C(NCCCN1CCOCC1)c1ccc2oc(Cc3ccc(Cl)cc3)nc2c1
bacterial growth OD600 (polymyxin B 0.75 µg/mL): 0.693

COc1ccc(-c2nn(-c3ccccc3C)cc2CN2CCNC(=O)CC2)cc1F
bacterial growth OD600 (polymyxin B 1 µg/mL): 0.758

Cc1nc(CCNC(=O)C2CCC(=O)N(Cc3ccccn3)C2)nc2c1CCCC2 (stereo not given)
bacterial growth OD600 (polymyxin B 1 µg/mL): 1.11

Cc1ncc(CNC2CC(=O)N(Cc3cccc4ccccc34)C2)n1C (stereo not given)
bacterial growth OD600 (polymyxin B 1 µg/mL): 0.958

CCC1(C2CCN(Cc3ccc(OC)cc3O)CC2)NC(=O)N(CCc2scnc2C)C1=O (stereo not given)
bacterial growth OD600 (polymyxin B 0.75 µg/mL): 0.865

CCCn1cc(CN2C[C@H]3OC(=O)N(C4CCCC4)[C@H]3C2)c(C)n1
bacterial growth OD600 (polymyxin B 0.75 µg/mL): 0.787

COc1ccc(CC2(CCC(=O)N(C)Cc3ccc(-n4cccn4)cc3)CCC(=O)N2)c2ccccc12 (stereo not given)
bacterial growth OD600 (polymyxin B 0.75 µg/mL): 0.764

CCO[C@H]1[C@H](NC(=O)c2cccnc2)c2ccccc2C12CCN(C(=O)c1cnc(C)cn1)CC2
bacterial growth OD600 (polymyxin B 0.75 µg/mL): 0.884

O=C(NCC1CCCN(Cc2nccs2)C1)c1cccc2ccccc12 (stereo not given)
bacterial growth OD600 (polymyxin B 1 µg/mL): 0.975

O=C(c1csnn1)N1CCC(C2CCN(c3ncccn3)CC2)C1 (stereo not given)
bacterial growth OD600 (polymyxin B 1 µg/mL): 1.02

COc1ccc(-n2ncc(C(C)NS(=O)(=O)c3cccc4nsnc34)c2C)cc1 (stereo not given)
bacterial growth OD600 (polymyxin B 0.75 µg/mL): 0.002
